Results as given in US20140336113A1.
These are yes or no findings as the source states them, for the method shown. Binding seen in cells or lysates may run through a third protein. Some binding calls cover weakened binding; strength is not graded here. For some assays here: Sequences can lack the tags named with a protein.

Chains of the proteins cited; added tags and fusions are not shown.
UniProt P52294: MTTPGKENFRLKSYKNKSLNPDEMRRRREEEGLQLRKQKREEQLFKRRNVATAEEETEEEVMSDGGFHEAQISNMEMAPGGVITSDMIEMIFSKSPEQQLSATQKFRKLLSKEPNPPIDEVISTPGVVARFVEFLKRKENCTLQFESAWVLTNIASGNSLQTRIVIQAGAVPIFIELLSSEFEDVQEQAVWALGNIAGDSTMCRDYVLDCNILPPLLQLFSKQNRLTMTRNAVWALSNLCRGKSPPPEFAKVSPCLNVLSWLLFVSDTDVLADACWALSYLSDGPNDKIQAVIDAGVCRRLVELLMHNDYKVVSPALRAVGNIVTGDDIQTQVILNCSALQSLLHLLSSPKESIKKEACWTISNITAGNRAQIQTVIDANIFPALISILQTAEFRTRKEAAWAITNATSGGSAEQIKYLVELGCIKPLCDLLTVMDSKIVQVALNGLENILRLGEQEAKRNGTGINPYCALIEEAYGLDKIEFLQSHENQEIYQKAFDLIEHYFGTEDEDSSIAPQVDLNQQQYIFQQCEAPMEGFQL
UniProt Q14974: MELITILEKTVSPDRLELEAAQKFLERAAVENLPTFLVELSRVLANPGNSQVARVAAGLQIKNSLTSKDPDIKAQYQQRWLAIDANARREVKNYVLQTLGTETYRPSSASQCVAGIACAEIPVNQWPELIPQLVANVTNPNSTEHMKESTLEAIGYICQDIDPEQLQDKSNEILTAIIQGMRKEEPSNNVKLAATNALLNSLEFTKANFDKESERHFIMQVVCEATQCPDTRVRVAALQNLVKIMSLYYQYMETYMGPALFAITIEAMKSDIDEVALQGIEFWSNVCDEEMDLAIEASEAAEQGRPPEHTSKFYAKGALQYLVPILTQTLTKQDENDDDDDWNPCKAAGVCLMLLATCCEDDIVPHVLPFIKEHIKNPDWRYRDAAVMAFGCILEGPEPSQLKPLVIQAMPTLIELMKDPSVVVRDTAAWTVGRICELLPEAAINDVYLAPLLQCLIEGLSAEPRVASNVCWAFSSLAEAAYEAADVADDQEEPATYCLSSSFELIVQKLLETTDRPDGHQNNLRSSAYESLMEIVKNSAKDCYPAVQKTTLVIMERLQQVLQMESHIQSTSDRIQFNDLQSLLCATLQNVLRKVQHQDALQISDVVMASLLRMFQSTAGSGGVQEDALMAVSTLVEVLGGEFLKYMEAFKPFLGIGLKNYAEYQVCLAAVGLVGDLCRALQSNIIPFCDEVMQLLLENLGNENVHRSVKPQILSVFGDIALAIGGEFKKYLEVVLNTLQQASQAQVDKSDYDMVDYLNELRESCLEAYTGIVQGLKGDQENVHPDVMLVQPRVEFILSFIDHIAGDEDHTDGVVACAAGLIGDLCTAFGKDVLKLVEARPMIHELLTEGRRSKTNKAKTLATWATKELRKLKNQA

What was measured:
importin alpha 5 (human) = importin alpha 5 (human) (UniProt P52294); experiment: pull-down from human Jurkat T cell lysate, immunoblot
importin beta (human) [1] = biological target: importin beta (human) (UniProt Q14974); experiment: pull-down of biotinylated peptide modules from cell lysate, immunoblot
importin beta (human) [2] = biological target: importin beta (human) (UniProt Q14974); experiment: pull-down from human Jurkat T cell lysate, immunoblot
importin beta (human) [3] = biological target: importin beta (human) (UniProt Q14974); experiment: pull-down from human HepG2 cell extract, immunoblot

Row | Binder | binding (importin alpha 5 (human)) | binding (importin beta (human) [1]) | binding (importin beta (human) [2]) | binding (importin beta (human) [3])
1 | VQRKRQKLMP (biotin added to the amino terminus) [biotinylated N50 peptide] | binds | – | – | –
2 | AVLLALLAP (peptide, not shown: small tags and cut ends, biotin added to the amino terminus) [biotinylated SSHR-2 peptide with solubility tag] | – | binds | – | –
3 | AAVALLPAVLLALLAPVQRKRQKLMP (biotin added to the amino terminus) [biotinylated SN50 peptide] | binds | – | binds | binds
